According to publication PMC8287910:

Columns and labels:
SLX1 + SLX4 F2 = experiment: fluorescence polarization; settings: Kd value shown only in Fig 3A; FPA: 100 nM FAM-DNA, 20 mM Tris pH 8.0, 100 mM NaCl, 30 min, room temperature, Hill slope fit; DNA annealed in 20 mM Tris pH 8.0, 150 mM NaCl; recombinant protein; protein details: 6xHis
[1] = molecular target: SLX4 CCD (F5) (Saccharomyces cerevisiae) (UniProt Q12098); experiment: fluorescence polarization; settings: without SLX1; FPA: 100 nM FAM-DNA, 20 mM Tris pH 8.0, 100 mM NaCl, 30 min, room temperature, Hill slope fit; DNA annealed in 20 mM Tris pH 8.0, 150 mM NaCl; recombinant protein; residues 675-748; protein details: 6xHis
[2] = molecular target: SLX4 SAP+CCD (F1) (Saccharomyces cerevisiae) (UniProt Q12098); experiment: fluorescence polarization; settings: without SLX1; FPA: 100 nM FAM-DNA, 20 mM Tris pH 8.0, 100 mM NaCl, 30 min, room temperature, Hill slope fit; DNA annealed in 20 mM Tris pH 8.0, 150 mM NaCl; recombinant protein; residues 610-748; protein details: 6xHis
[3] = molecular target: SLX4 CCD (F5) (Saccharomyces cerevisiae) (UniProt Q12098); experiment: EMSA; settings: 30:1 and 60:1 protein:DNA, without SLX1; recombinant protein; residues 675-748; protein details: 6xHis
[4] = molecular target: SLX4 SAP+CCD (F1) (Saccharomyces cerevisiae) (UniProt Q12098); experiment: EMSA; settings: 30:1 and 60:1 protein:DNA, without SLX1; recombinant protein; residues 610-748; protein details: 6xHis

Sequence	binding result (SLX1 + SLX4 F2)	Kd [1] [µM]	Kd [2] [µM]	binding result [3]	binding result [4]
ACCAGTGCCTTGCTAGGACATCTTTGCCCA / TGGGCAAAGATGTCCATCTGTTGTAATCGT / ACGATTACAACAGAT [5'-flap DNA (Flap-15nt), FPA]	binds	34.2	1.4	–	–
ACCAGTGCCTTGCTAGGACATCTTTGCCCA / TGGGCAAAGATGTCCATCTGTTGTAATCGT / ACGATTACAACAGATCATGGAGCTGTCTAG / CTAGACAGCTCCATGTAGCAAGGCACTGGT [Holliday junction (XO-1/XO-2/XO-3/XO-4)]	–	–	–	no binding	binds
ACCAGTGCCTTGCTAGGACATCTTTGCCCA / TGGGCAAAGATGTCCATCTGTTGTAATCGT / ACGATTACAACAGAT [5'-flap DNA, EMSA]	–	–	–	no binding	binds

For at least one entry, the source does not settle the construct or the ends of the probe. For some of these results: A negative result means that nothing was seen under these conditions.
